{
  "sequences": {"note": "Chains of the proteins cited; added tags and fusions are not shown. Residues count along the entry.", "UniProt Q96EB6, 2-747 limits assumed": "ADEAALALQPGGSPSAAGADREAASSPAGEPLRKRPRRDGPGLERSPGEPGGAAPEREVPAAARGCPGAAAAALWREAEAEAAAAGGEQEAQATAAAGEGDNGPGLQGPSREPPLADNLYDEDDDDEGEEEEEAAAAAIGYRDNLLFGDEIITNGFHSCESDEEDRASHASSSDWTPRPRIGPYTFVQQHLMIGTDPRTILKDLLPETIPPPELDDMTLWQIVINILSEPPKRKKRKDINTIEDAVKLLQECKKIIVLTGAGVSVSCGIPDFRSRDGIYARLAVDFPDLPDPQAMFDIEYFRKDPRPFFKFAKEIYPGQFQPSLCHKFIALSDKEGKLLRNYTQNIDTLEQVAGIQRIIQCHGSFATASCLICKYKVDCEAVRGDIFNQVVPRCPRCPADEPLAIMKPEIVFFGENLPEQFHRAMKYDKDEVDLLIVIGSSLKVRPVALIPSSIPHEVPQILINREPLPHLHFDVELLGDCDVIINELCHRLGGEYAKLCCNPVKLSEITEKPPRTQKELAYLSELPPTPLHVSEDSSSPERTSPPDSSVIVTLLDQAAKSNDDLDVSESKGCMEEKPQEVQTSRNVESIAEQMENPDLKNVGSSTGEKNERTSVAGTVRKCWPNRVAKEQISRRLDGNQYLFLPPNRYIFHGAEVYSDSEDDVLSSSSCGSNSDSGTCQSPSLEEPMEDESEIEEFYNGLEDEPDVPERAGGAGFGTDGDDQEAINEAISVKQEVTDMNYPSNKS"},
  "source": "paper PMC6925144",
  "about": "“A prospective compound screening contest identified broader inhibitors for Sirtuin 1” (Scientific Reports, 2019)",
  "note": "Over roughly 3,200 compounds, “TSA(with NAD+) / Primary screening (TSA) / delta Tm (K)” has its median near -0.04; the highest 2% begin near 0.37. The list shows a part of the results.",
  "data": [
    {"molecular_target": "NAD-dependent deacetylase Sirtuin 1 (human, UniProt Q96EB6)", "assay": "primary screen, delta tm", "parameters": "single well (n = 1, as 'the same TSA')", "details": "10 µM", "units": {"TSA(with NAD+) / Primary screening (TSA) / delta Tm (K)": "K"}, "values": [
      {"smiles": "CCc1ncnc(N2CCCC(c3cc(C(N)=O)[nH]n3)C2)c1F", "note": "(centres unmarked)", "TSA(with NAD+) / Primary screening (TSA) / delta Tm (K)": -0.16},
      {"smiles": "CN(C)C(CNC(=O)c1ccc2c(c1)OCCCO2)c1ccco1", "note": "(centres unmarked)", "TSA(with NAD+) / Primary screening (TSA) / delta Tm (K)": 0.01},
      {"smiles": "COCCCNCc1ccccc1", "TSA(with NAD+) / Primary screening (TSA) / delta Tm (K)": -0.09},
      {"smiles": "O=C(NCC(O)c1ccccc1)c1ccc2c(=O)[nH]c(S)nc2c1", "note": "(centres unmarked)", "TSA(with NAD+) / Primary screening (TSA) / delta Tm (K)": -0.13},
      {"smiles": "CCC(NC(=O)C1=COCCC1)C1CN(Cc2ccccc2)CCO1", "note": "(centres unmarked)", "TSA(with NAD+) / Primary screening (TSA) / delta Tm (K)": -0.23},
      {"smiles": "COc1cccc(CN(C(=O)COC(=O)c2ccc(NC(C)=O)cc2)C23CC4CC(CC(C4)C2)C3)c1", "TSA(with NAD+) / Primary screening (TSA) / delta Tm (K)": -0.13},
      {"smiles": "O=C(COC(=O)C1(c2ccc(Cl)cc2)CCCC1)Nc1cc(S(=O)(=O)N2CCOCC2)ccc1N1CCCC1", "TSA(with NAD+) / Primary screening (TSA) / delta Tm (K)": -0.16},
      {"smiles": "CCC(O)CN(C)Cc1ccc2ccccc2c1", "note": "(centres unmarked)", "TSA(with NAD+) / Primary screening (TSA) / delta Tm (K)": -0.03},
      {"smiles": "Cc1ccc2c(n1)nn1c(O)cc(C)nc21", "TSA(with NAD+) / Primary screening (TSA) / delta Tm (K)": -0.18},
      {"smiles": "O=C(Cc1c[nH]c2ccccc12)N1CCc2[nH]c3ccccc3c2C1", "TSA(with NAD+) / Primary screening (TSA) / delta Tm (K)": 0.37},
      {"smiles": "CCN(C(=O)CSc1nnc(-c2sc3ccccc3c2Cl)o1)C1CCS(=O)(=O)C1", "note": "(centres unmarked)", "TSA(with NAD+) / Primary screening (TSA) / delta Tm (K)": 0.07},
      {"smiles": "Cc1ccc2[nH]c3c(c2c1)CNCC3", "TSA(with NAD+) / Primary screening (TSA) / delta Tm (K)": -0.06},
      {"smiles": "O=C(Cn1cnc2sccc2c1=O)Nc1ccccc1Oc1ccccc1", "TSA(with NAD+) / Primary screening (TSA) / delta Tm (K)": -0.09},
      {"smiles": "Cc1csc2c(N3CCN4CCC3CC4)ncnc12", "TSA(with NAD+) / Primary screening (TSA) / delta Tm (K)": -0.11},
      {"smiles": "O=C1c2ccccc2C(=O)N1Cc1cc(=O)n2ccccc2n1", "TSA(with NAD+) / Primary screening (TSA) / delta Tm (K)": -0.03},
      {"smiles": "Cc1cc(N2CCN(CC(=O)Nc3sc4c(c3C(N)=O)CCCC4)CC2)nc(C(C)C)n1", "TSA(with NAD+) / Primary screening (TSA) / delta Tm (K)": -0.09},
      {"smiles": "O=c1[nH]cnc2c1cnn2-c1ccncc1", "TSA(with NAD+) / Primary screening (TSA) / delta Tm (K)": -0.23},
      {"smiles": "CCN(CC(=O)NCc1ccc(F)cc1)Cc1ccc(C(=O)Nc2ccccc2)cc1", "TSA(with NAD+) / Primary screening (TSA) / delta Tm (K)": -0.12},
      {"smiles": "Cc1ccc([N+](=O)[O-])c(Oc2nc(CN3CCOCC3)nc3scc(-c4cccs4)c23)c1", "TSA(with NAD+) / Primary screening (TSA) / delta Tm (K)": -0.21},
      {"smiles": "Cc1c(C(=O)O)cnc2nc3ccccc3n12", "TSA(with NAD+) / Primary screening (TSA) / delta Tm (K)": -0.21},
      {"smiles": "CN(C(=O)CCN/C(O)=C1/N=CC=CC1=O)c1ccc2ccccc2c1", "TSA(with NAD+) / Primary screening (TSA) / delta Tm (K)": 0.09},
      {"smiles": "Cc1cccc(NC(=O)CN2CCN(CC3CCCCC3)CC2)c1C", "TSA(with NAD+) / Primary screening (TSA) / delta Tm (K)": 0.09},
      {"smiles": "NS(=O)(=O)c1ccc(C(=O)Nc2ccc3c(c2)-c2ccccc2C3)cc1", "TSA(with NAD+) / Primary screening (TSA) / delta Tm (K)": 0.68},
      {"smiles": "COc1ccc(C(=O)OC(C)C(N)=O)cc1F", "note": "(centres unmarked)", "TSA(with NAD+) / Primary screening (TSA) / delta Tm (K)": -0.02},
      {"smiles": "CNS(=O)(=O)c1ccc(CCC(=O)Nc2ccccc2Cc2ccccc2)cc1", "TSA(with NAD+) / Primary screening (TSA) / delta Tm (K)": 0.07},
      {"smiles": "CC(=O)N1N=C(c2ccc(O)cc2)CC1c1ccccc1", "note": "(centres unmarked)", "TSA(with NAD+) / Primary screening (TSA) / delta Tm (K)": 0.36},
      {"smiles": "CC(C)(CNc1ncnc2ccsc12)C(N)=O", "TSA(with NAD+) / Primary screening (TSA) / delta Tm (K)": -0.08},
      {"smiles": "Cc1nc2ccccc2c2c(NC(=O)c3cnccn3)c3ccccc3n12", "TSA(with NAD+) / Primary screening (TSA) / delta Tm (K)": -0.13},
      {"smiles": "COc1ccc(C(N)=O)cc1NC(=O)c1nn(-c2ccc(C)c(F)c2)c2c1CCCC2", "TSA(with NAD+) / Primary screening (TSA) / delta Tm (K)": 0.13},
      {"smiles": "COc1ccc2cc(CNc3ncnc4[nH]ncc34)ccc2c1", "TSA(with NAD+) / Primary screening (TSA) / delta Tm (K)": -0.01},
      {"smiles": "COc1cccc(C(=O)C2=C(O)C(=O)N(CCCN3CCOCC3)C2c2cccc([N+](=O)[O-])c2)c1", "note": "(centres unmarked)", "TSA(with NAD+) / Primary screening (TSA) / delta Tm (K)": 0.05},
      {"smiles": "O=S1(=O)CC(O)C(N2CCN(c3ncnc4c3oc3ccccc34)CC2)C1", "note": "(centres unmarked)", "TSA(with NAD+) / Primary screening (TSA) / delta Tm (K)": -0.01},
      {"smiles": "CCOc1ccc(NC(=O)COc2ccc(C(=O)NC34CC5CC(CC(C5)C3)C4)cc2OC)cc1", "TSA(with NAD+) / Primary screening (TSA) / delta Tm (K)": -0.06},
      {"smiles": "Cc1cnc(N2CCC(Oc3ccnc(C(N)=O)c3)CC2)s1", "TSA(with NAD+) / Primary screening (TSA) / delta Tm (K)": -0.16},
      {"smiles": "Cc1ccc(-c2csc(NC(=O)c3ccnc4c(C(N)=O)cnn34)n2)c(C)c1", "TSA(with NAD+) / Primary screening (TSA) / delta Tm (K)": -0.01},
      {"smiles": "Cc1ccccc1CC(=O)Nc1ccc(N2CCN(Cc3ccccc3)CC2)cc1", "TSA(with NAD+) / Primary screening (TSA) / delta Tm (K)": 0.09},
      {"smiles": "COc1cccc2cc(C(=O)C3=C(O)C(=O)N(CCN4CCOCC4)C3c3ccc(C)cc3)oc12", "note": "(centres unmarked)", "TSA(with NAD+) / Primary screening (TSA) / delta Tm (K)": 0.07},
      {"smiles": "O=C(Nc1cccc2ccccc12)N1CC=C(c2ccccc2)CC1", "TSA(with NAD+) / Primary screening (TSA) / delta Tm (K)": -0.09},
      {"smiles": "CNC(=O)c1c(-c2ccccc2)n(C)c2ccccc12", "TSA(with NAD+) / Primary screening (TSA) / delta Tm (K)": -0.05},
      {"smiles": "CCOc1ccc(C2C(C(=O)c3ccco3)=C(O)C(=O)N2CCCN2CCOCC2)cc1OC", "note": "(centres unmarked)", "TSA(with NAD+) / Primary screening (TSA) / delta Tm (K)": 0.12},
      {"smiles": "CC1CCCCC1NC(=O)CN1C(=O)NC2(CCc3ccccc3C2)C1=O", "note": "(centres unmarked)", "TSA(with NAD+) / Primary screening (TSA) / delta Tm (K)": -0.09},
      {"smiles": "NCCc1nc2cc(C(=O)O)ccc2[nH]1", "TSA(with NAD+) / Primary screening (TSA) / delta Tm (K)": -0.13},
      {"smiles": "Cc1nc(-c2ccc(NC(=O)[C@H](C)NC(=O)OCc3ccccc3)cc2)cs1", "TSA(with NAD+) / Primary screening (TSA) / delta Tm (K)": -0.11},
      {"smiles": "CN(CC(=O)Nc1ccc(Cl)c(C(F)(F)F)c1)C(=O)COC(=O)Cc1coc2cc(O)ccc12", "TSA(with NAD+) / Primary screening (TSA) / delta Tm (K)": 0.32},
      {"smiles": "CCCCC(NC1=NS(=O)(=O)c2ccccc21)C(=O)NCc1ccc(-c2ccc(O)cc2)cc1", "note": "(centres unmarked)", "TSA(with NAD+) / Primary screening (TSA) / delta Tm (K)": 0.12},
      {"smiles": "COc1cc(/C=N/NC(=O)c2cc3c(s2)CCCC3)ccc1OS(=O)(=O)c1cc(C)ccc1C", "TSA(with NAD+) / Primary screening (TSA) / delta Tm (K)": 0.09},
      {"smiles": "O=C(O)c1ccc2c(c1)C(=O)c1ccccc1-2", "TSA(with NAD+) / Primary screening (TSA) / delta Tm (K)": -0.05}
    ]}
  ]
}
